Earlier results as cited in US20260207735A1, “Pharmaceutical compositions, vaccines and their uses in the prevention or treatment of a persistent infection or of cancer” (Universitätsmedizin der Johannes Gutenberg-Universität Mainz, priority 2018, published 2026).
At least one compound was matched to its structure with a doubt left.

Target: T1, mouse TLR8 (Mus musculus, UniProt P58682)
T1 sequence (P58682 24-1032): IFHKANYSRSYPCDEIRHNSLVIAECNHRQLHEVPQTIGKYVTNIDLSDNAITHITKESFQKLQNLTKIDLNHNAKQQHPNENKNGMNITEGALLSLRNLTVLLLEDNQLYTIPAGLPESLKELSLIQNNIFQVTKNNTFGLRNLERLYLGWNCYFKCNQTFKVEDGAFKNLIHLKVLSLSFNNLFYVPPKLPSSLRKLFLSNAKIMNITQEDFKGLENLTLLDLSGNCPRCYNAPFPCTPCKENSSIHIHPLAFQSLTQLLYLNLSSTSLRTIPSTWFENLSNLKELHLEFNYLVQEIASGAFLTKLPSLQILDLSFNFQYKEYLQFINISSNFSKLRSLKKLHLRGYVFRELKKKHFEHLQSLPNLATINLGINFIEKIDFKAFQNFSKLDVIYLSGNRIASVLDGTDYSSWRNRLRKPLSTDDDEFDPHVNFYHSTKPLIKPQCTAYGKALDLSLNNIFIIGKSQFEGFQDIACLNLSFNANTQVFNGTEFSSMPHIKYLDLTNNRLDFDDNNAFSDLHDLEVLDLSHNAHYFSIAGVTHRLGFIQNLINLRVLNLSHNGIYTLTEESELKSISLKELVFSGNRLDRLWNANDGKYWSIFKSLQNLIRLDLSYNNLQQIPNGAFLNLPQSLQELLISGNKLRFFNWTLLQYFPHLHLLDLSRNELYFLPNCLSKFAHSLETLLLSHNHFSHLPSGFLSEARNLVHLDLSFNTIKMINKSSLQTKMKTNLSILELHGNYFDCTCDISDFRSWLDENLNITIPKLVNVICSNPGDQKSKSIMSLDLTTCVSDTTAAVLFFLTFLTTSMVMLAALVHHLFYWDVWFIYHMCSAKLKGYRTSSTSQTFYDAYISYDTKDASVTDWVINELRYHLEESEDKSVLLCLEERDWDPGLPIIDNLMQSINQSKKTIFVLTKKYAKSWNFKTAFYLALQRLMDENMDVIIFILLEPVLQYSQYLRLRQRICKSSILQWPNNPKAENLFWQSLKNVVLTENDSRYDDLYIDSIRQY
Conditions: cited from earlier work

CCOCc1nc2c(N)nc3ccccc3c2n1CC(C)(C)O [Resiquimod, resiquimod]
mouse TLR8-mediated activation: does not exert mouse TLR8-mediated activation
